Each number is a percent effect as filed. The record does not define 0% and 100%; most values in the screen are far below 50% and negative numbers occur (in some assays of this library far below -100). This is an unselected part of the compounds tested. A dash means the value is not listed here; it may have been measured.

Protein sequences, listed by entry. Tags and fused reporters are not part of them.
UniProt P9WFT3, whole entry: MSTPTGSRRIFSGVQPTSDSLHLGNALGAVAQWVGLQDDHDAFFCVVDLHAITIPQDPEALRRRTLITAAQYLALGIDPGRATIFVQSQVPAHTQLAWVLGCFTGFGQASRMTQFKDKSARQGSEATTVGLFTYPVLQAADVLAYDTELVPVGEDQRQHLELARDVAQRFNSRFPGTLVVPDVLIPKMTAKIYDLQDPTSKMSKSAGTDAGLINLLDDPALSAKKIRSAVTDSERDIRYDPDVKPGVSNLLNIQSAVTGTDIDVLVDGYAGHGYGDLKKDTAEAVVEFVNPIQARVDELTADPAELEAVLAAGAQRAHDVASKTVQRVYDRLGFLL
UniProt I6X8D2, whole entry: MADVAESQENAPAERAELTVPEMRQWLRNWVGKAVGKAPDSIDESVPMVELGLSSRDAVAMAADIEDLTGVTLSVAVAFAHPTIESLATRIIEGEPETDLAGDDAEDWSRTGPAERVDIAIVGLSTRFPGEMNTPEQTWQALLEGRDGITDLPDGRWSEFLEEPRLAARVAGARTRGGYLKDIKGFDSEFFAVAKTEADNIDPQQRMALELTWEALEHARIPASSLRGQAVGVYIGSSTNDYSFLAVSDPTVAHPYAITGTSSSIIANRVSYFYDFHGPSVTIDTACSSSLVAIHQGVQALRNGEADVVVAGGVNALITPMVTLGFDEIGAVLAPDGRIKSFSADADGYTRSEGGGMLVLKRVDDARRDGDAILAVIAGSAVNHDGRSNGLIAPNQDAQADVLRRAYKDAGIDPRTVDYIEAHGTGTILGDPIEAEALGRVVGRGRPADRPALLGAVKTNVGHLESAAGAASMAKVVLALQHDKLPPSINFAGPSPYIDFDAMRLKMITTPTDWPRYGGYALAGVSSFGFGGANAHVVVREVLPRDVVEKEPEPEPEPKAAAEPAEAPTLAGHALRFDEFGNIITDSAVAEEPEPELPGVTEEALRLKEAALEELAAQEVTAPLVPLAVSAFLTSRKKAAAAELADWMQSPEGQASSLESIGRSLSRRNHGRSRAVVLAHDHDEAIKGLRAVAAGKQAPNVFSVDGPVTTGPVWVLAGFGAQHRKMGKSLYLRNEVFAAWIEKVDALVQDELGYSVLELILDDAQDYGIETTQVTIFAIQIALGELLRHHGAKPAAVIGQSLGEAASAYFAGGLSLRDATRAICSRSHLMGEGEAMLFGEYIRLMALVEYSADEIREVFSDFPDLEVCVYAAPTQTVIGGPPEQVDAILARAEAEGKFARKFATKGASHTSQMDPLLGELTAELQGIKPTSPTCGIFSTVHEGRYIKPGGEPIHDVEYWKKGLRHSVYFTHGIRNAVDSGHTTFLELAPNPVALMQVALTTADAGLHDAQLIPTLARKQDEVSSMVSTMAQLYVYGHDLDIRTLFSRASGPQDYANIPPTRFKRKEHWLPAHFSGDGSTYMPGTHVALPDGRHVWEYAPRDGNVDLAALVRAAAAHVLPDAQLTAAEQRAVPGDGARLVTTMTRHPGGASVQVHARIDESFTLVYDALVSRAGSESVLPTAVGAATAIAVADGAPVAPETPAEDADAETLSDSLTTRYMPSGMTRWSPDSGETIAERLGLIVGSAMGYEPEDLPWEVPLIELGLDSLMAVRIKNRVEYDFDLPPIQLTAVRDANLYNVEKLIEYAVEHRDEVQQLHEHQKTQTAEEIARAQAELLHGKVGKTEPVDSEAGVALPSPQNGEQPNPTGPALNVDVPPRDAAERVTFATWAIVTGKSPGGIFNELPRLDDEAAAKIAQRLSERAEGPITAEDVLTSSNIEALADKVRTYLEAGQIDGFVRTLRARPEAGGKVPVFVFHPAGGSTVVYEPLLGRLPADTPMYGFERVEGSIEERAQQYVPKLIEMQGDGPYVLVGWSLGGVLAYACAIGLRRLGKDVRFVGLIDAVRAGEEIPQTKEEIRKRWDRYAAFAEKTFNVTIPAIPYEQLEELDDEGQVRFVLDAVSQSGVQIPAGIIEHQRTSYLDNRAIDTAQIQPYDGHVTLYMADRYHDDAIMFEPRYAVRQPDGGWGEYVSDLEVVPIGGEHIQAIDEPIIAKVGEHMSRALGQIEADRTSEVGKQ
UniProt P9WNZ1, whole entry: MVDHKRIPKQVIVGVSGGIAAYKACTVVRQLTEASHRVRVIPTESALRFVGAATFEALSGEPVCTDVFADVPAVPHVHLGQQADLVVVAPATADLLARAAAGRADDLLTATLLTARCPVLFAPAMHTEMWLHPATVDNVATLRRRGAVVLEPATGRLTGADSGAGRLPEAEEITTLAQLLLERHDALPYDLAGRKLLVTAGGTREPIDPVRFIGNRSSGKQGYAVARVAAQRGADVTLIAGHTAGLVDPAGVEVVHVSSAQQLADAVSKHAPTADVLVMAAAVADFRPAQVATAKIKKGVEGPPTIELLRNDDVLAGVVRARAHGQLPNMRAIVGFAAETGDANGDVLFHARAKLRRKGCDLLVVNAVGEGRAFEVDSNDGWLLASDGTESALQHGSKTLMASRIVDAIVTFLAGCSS

A: 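Tryptophan-tRNA ligase, Mycobacterium tuberculosis (UniProt P9WFT3). Enzyme assay of tryptophanyl-tRNA synthetase; the read-out is not stated. Compounds at 10 µM. Higher most likely means stronger inhibition; the record gives no direction and few retests gave an IC50. Of about 65,000 compounds tested this way, about 64 (0.098%) reached 50% or more in at least one test.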
B: 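Enzyme assay of the thioesterase domain of polyketide synthase 13; the read-out is not stated. Target: Polyketide synthase Pks13, Mycobacterium tuberculosis (UniProt I6X8D2). Compounds at 30 µM. Higher reads as stronger inhibition (inferred from which compounds were picked for retests). About 67,000 compounds were tested under these conditions; 0.46% (about 300) showed 50% or more at least once.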
C: 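Coenzyme A biosynthesis protein CoaBC, Mycobacterium tuberculosis (UniProt P9WNZ1). Enzyme assay of CoaBC with a phosphate dye (Biomol Green) read at 650 nm. Tested at 30 µM. Higher reads as stronger inhibition, judged from the few compounds that gave an IC50. Most strong results did not repeat in a second test. About 67,000 compounds were tested under these conditions; 0.06% (about 40) showed 50% or more at least once.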

| structure | A | B | C |
|---|---|---|---|
| `CC(C)N1CCC(Cc2cc(-c3ccccc3C(=O)O)ncn2)CC1` | -3.428% | -3.559% | -11.39% |
| `CC(C)N1CC(C(=O)N2CCN(CCn3cccc3)CC2)CC1=O` (configuration not stated) | 0.6054% | -14.95% | 3.024% |
| `Cc1noc(C2CCC3(CCN(C(=O)c4ncccn4)CC3)O2)n1` (configuration not stated) | -7.713% | -10.33% | 0.7407% |
| `Cc1cc(NC(=O)C(C)Cn2cc(Br)cn2)no1` (configuration not stated) | 2.294% | -2.228% | 5.855% |
| `COc1ccc(OCc2nc3cc4c(cc3c(=O)o2)OCCCO4)cc1` | -2.878% | 5.85% | -8.712% |
| `COc1ccc(OC)c(NC(=O)c2c(C)cn(C)c2CC(=O)O)c1` | 3.223% | -9.676% | 3.557% |
| `c1coc(CN2C[C@H](OCC3CCOCC3)[C@H]3COC[C@H]32)c1` | 0.959% | -32.76% | 5.913% |
| `Cc1ccc(C)n1-c1c(C(=O)NCC(C)N(C)C)cnn1C` (configuration not stated) | 1.159% | 9.073% | 0.7595% |
| `CN(CCOc1ccc(Cl)cc1)Cc1ccc(S(=O)(=O)N(C)C)o1` | -2.88% | -2.272% | 3.883% |
| `O=C1NC2(CCN(C(=O)c3ccccc3)CC2)CC1c1cccnc1` (configuration not stated) | 2.549% | -19.05% | -4.516% |
| `CCOc1cc(C(=O)N2CCN(CC)CC2)cc2occc12` | 5.22% | -11.82% | 1.786% |
| `CC(C)(C)c1cn2nc(N3CCCCC3Cn3cncn3)sc2n1` (configuration not stated) | -3.298% | -1.373% | -1.895% |
| `Cc1csc(N2CCCN(C(=O)c3c(C)noc3C)CC2)n1` | -8.045% | -7.034% | -1.044% |
| `c1ccc2c(Cc3nnc([C@H]4CCN(C5CCCCC5)C4)o3)c[nH]c2c1` | 0.6865% | -4.689% | 9.627% |
| `CC(C)[C@H]1CN(Cc2c[nH]nn2)C[C@@H]1NC(=O)C1CCOCC1` | -3.644% | -77.04% | 3.929% |
| `CCOc1ccc(NC(=O)c2cnc(N3CCCC3)nc2C)cc1` | 0.7718% | -12.94% | 7.224% |
| `COc1cccc(C(=O)NC(C)CCN2CCOCC2)c1F` (configuration not stated) | -1.583% | -17.63% | 3.018% |
| `c1cc(CNCc2ccnc(N3CCCC3)c2)c2c(c1)OCCCO2` | -1.385% | -13.79% | 3.353% |
| `COc1cccc(OCCc2nc3c(cc2C(N)=O)CCC3)c1` | 1.41% | -26.42% | 4.444% |
| `CCNC(=O)c1c2c(N3CCN(C)CC3)ncnc2n2ccccc12` | 0.6975% | -1.396% | -2.521% |
| `CN(C)C(=O)CN1CCC2(CCN(CC3CC3)CC2)C1=O` | 11.19% | -45.37% | -0.9009% |
| `O=C(NCc1nc(C2CC2)no1)N1CCOC(c2ccccc2)C1` (configuration not stated) | 1.854% | 7.196% | 1.098% |
| `NC(=O)N1CCCN(C2CCc3ccc(F)cc32)CC1` (configuration not stated) | -0.2646% | -7.539% | 8.974% |
| `Cc1cc(N(Cc2ccon2)S(C)(=O)=O)ccc1Br` | 7.946% | 5.365% | -12.05% |
| `Cc1cc2n(n1)CC(CNCc1cnn(-c3ccccc3)c1)CN2` (configuration not stated) | -4.245% | -5.991% | 3.723% |
| `CCC[C@@H]1CN(C(=O)c2ccccc2-c2ncc[nH]2)C[C@H]1N(C)C` | -0.3882% | -7.214% | -51.21% |
| `COc1ccc(CCN2CCCC(n3cncn3)C2)cc1` (configuration not stated) | 4.139% | 2.308% | 2.433% |
| `COc1ccccc1C(C)CC(=O)N1CCN(S(N)(=O)=O)CC1` (configuration not stated) | -0.4472% | -27.23% | 4.4% |
| `CC1CN(C2CCN(Cc3nccn3CC(F)(F)F)CC2)CCO1` (configuration not stated) | 0.9183% | 2.87% | 0.3628% |
| `O=C(O)c1cc(-c2cccs2)nc2c(Cl)cnn12` | - | -14.27% | -0.1227% |
| `COc1cc(C)nc(N2CCN(C(=O)CCc3nccs3)CC2)n1` | -6.424% | -19.79% | 1.919% |
| `CCS(=O)(=O)N1CCC(c2nnc(CN3CCCCCC3)n2C)CC1` | -2.22% | -16.22% | 3.427% |
| `Cc1cccc(N2CCCC3(C2)CN(S(=O)(=O)C2CC2)CCO3)c1` (configuration not stated) | -3.294% | 3.217% | -5.533% |
| `O=C1CC2(CCCNC2)C(=O)N1Cc1ccc(Cl)cc1` (configuration not stated) | -2.471% | -7.423% | 2.445% |
| `O=C(O)c1nnn(-c2cccc(C(F)(F)F)c2)c1-c1ccncc1` | -3.476% | 20.59% | 1.772% |
| `Cc1nc(CN2CCC(C(=O)N(C)C3CCC(C)CC3)CC2)cs1` (configuration not stated) | -2.812% | -28.53% | -1.621% |
| `Cc1cccc(-n2nnnc2C2(NCc3ccco3)CCCCC2)c1` | 3.6% | 9.993% | 5.583% |
| `COc1ccc(Oc2cccnc2)cc1CN1CCCC1` | -1.302% | -11.21% | 9.814% |
| `O=C(CC1CCN(c2cccnn2)CC1)Nc1nncs1` | -1.339% | 3.269% | 1.214% |
| `O=C(NC[C@H]1CCCC[C@H]1O)c1cccc2[nH]c(-c3cccs3)nc12` | - | -17.05% | 1.699% |
| `CCN(CC)C(=O)[C@@H]1C[C@@H](NC(=O)c2cccn2C2CC2)CN1C` | 5.137% | -17.78% | 2.644% |
| `COc1cc(S(=O)(=O)N2CCc3ccccc32)cc(C(=O)O)c1OC` | -1.013% | -12.77% | 0.2611% |
| `CCN(CCn1cccn1)C(=O)CN1C(=O)OC[C@@H]1c1ccccc1` | -5.353% | - | -3.419% |
| `O=C(c1cccnc1O)N(Cc1ccsc1)CC1CCCO1` (configuration not stated) | -2.864% | -24% | 7.889% |
| `CCC(=O)Nc1cc(Br)cn(C)c1=O` | 2.547% | -29.07% | 4.146% |
| `Cc1ccc(CNC(=O)CCN2CCN(c3ccccn3)CC2)n1C` | 8.81% | -3.744% | 3.89% |
| `Cc1cnn(CC2CCCN2C(=O)c2cccnc2-n2cncn2)c1` (configuration not stated) | -5.253% | -1.868% | 8.323% |
| `COc1ccc(C2CC(=O)Oc3cc(C)[nH]c(=O)c32)cc1` (configuration not stated) | -2.01% | -16.58% | 2.288% |
| `Cc1cc(C)n(C2CCCN(C(=O)c3ccc4c(c3)COC4)C2)n1` (configuration not stated) | -5.225% | -10.73% | 6.6% |
| `CCC(C(=O)NCc1cccnc1)N(c1cccc(C)c1)S(C)(=O)=O` (configuration not stated) | -2.991% | -16.25% | 1.542% |

Some entries from above, unchanged:

{"structure": "Cc1cc(N(Cc2ccon2)S(C)(=O)=O)ccc1Br", "A": 7.946, "B": 5.365, "C": -12.05}
{"structure": "CC(C)(C)c1cn2nc(N3CCCCC3Cn3cncn3)sc2n1", "stereo": "configuration not stated", "A": -3.298, "B": -1.373, "C": -1.895}
{"structure": "CCN(CC)C(=O)[C@@H]1C[C@@H](NC(=O)c2cccn2C2CC2)CN1C", "A": 5.137, "B": -17.78, "C": 2.644}
{"structure": "c1ccc2c(Cc3nnc([C@H]4CCN(C5CCCCC5)C4)o3)c[nH]c2c1", "A": 0.6865, "B": -4.689, "C": 9.627}
{"structure": "COc1ccc(Oc2cccnc2)cc1CN1CCCC1", "A": -1.302, "B": -11.21, "C": 9.814}
{"structure": "CCC(C(=O)NCc1cccnc1)N(c1cccc(C)c1)S(C)(=O)=O", "stereo": "configuration not stated", "A": -2.991, "B": -16.25, "C": 1.542}

The values are deposited in ChEMBL (CHEMBL3988442, “University of Dundee, Small-Polar-MMV Screening Library” (2021)).